Source: patent US20040115205A1
No constants are given. Whether binding was seen depends on the method and setting. Some binding calls cover weakened binding; strength is not graded here.

Chains of the proteins cited; added tags and fusions are not shown. Residues count along the entry.
UniProt P43121, residues 24-559: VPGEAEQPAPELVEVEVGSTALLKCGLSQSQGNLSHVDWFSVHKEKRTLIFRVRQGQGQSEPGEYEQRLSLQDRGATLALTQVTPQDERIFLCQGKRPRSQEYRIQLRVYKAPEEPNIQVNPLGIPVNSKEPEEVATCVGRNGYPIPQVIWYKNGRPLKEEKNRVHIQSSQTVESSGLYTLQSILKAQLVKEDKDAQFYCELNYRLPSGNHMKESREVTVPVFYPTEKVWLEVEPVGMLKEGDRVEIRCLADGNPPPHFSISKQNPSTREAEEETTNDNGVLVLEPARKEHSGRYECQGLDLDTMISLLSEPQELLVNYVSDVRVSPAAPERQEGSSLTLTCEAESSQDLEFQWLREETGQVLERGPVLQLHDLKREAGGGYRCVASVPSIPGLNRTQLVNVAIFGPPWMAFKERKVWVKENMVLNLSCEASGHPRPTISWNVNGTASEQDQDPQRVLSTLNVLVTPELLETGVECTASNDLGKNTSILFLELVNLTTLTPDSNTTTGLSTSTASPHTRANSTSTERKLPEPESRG

These binders were tested against MUC18 antigen coated on ELISA plates (hybridoma screening) (human) (UniProt P43121) (assay: antigen-specific ELISA of hybridoma supernatants on antigen coated plates).

Row | Binder | binding
1 | anti-MUC18 antibody c3.10 (antibody, V domains shown) VH: QVQLQESGPGLVKPSETLSLTCTVSGGSISSYYWSWIRQPPGKGLEWIGYIYYTWTTNYNPSLKSRVTISVDTSKNQFSLRLSSVTAADTALYYCARDQGQWLLPDAFDIWGQGTMVTVSS VL: DIQMTQSPSSLSASVGDRVTITCRASQSISNYLNWYQQKPGKAPKLLIYGASSLQSGVPSRFSGSGSGTDFTLTISSLQPEDFATYYCRQSYSTPPECSFGQGTKLEIK | binds
2 | anti-MUC18 antibody c3.22 (antibody, V domains shown) VH: QVQLQESGPGLVKPSQTLSLTCTVSGGSISSGGYYWTWIRQHPGKGLEWIGFIYYSGSTYYNPSLKSRVTISVDTSKNQFSLKLSSVTAADTAVYYCAREGDGFDYWGQGTLVTVSS VL: DIQMTQSPSSLSASVGDRVTITCRASQGIRNDLGWYQQKPGKAPKRLIYAASSLQSGVPSRFSGSGSGTEFTLTISSLQPEDFATYYCLQHNSYPLTFGGGTKVEIK | binds
3 | anti-MUC18 antibody c3.27 (antibody, V domains shown) VH: QVQLQESGPGLVKPSETLSLTCTVSGGSISSYYWSWIRQPPGKGLEWIGYIYYTWTSNYNPSLKSRVTISVDTSKNQFSLRLSSVTAADTAVYYCARDQGQWLLPDAFDIWGQGTMVTVSS VL: DIQMTQSPSSLSASVGDRVTITCRASQGIRNDLGWYQQKPGKAPKRLIYAASSLQSGVPSRFSGSGSGTEFTLTISSLQPEDFATYYCLQHNSYPWTFGQGTKVEIK | binds
4 | anti-MUC18 antibody c3.45 (antibody, V domains shown) VH: QVQLVQSGAEVKKPGASVKVSCKASGYTFFSYGFSWVRQAPGQGLEWLGWISAYNGNTNYAQKLQGRVTMTTDTSTSTAYMELRSLRSDDTAVYYCARETKVRGVHYYGMDVWGQGTTVTVSS VL: DIVMTQSPDSLAVSLGERATIICKSSQSILYSSNNKNYLGWYQQKPGQPPKLLIYWASTRESGVPARFSGSGSGTDFTLTINSLQAEDVAVYYCQQYYSTPRSFGQGTMVEIK | binds
5 | anti-MUC18 antibody c6.9 (also independently cloned as c6.12) (antibody, V domains shown) VH: QVQLEQSGPGLVKPSETLSLTCTVSGGSISSGTYHWSWIRQHPGRGLEWIGYIYYSGSTYHNPSLKSRITISVDTSKNQFSLKLSSVTAADTAVYYCARGGDGYRYWGQGTLVTVSS VL: EIVMTQSPATLSVSPGERATLSCRASQSISNNFAWYQQKPGQAPRLLIFGASTRATGIPARFSGSGSGTEFTLTISSLQSEDFAVYYCQQYNNWPRTFGQGTKVEIK | binds
6 | anti-MUC18 antibody c6.2 (antibody, V domains shown) VH: QVQLQESGPGLVKPSETLSLTCTVSGGSISTYYWSWIRQPPGKGLEWIGYIYYTGNTYYNPSLKSRVTVSVDTSKNQFSLKLNSVTAADTAVYYCARDPGQWLVPDAFDIWGQGTMVSVSS VL: DIVMTQSPLSLPVIPGEPASISCRSSQSLLQSNGNNYLDWYLQKPGQSPQLLIYLGSNRASGVPDRFSGSGSGTDFTLKISRVEADDVGIYYCMQALQIPLTFGGGTKVEIK | binds
